For 9 substances, conjugation yield and step yield results are on record in patent US12433950 (dated 2025).

The data set is described as follows: general procedure: solution-phase peptide synthesis; BroP; diethyl cyanophosphonate; PyBrop. Conditions: for conjugation yield: conjugation step.

“(2S)-2-((2R,3R)-3-((2S)-1-((11S,14S,17S)-1-azido-17-((R)-sec-butyl)-11,14-diisopropyl-18-methoxy-10,16-dimethyl-9,12,15-trioxo-3,6-dioxa-10,13,16-triazaicosan-20-oyl)pyrrolidin-2-yl)-3-methoxy-2-methylpropanamido)-3-phenylpropanoic acid” showed a conjugation yield of 82% yield. Substance “(4R)-4-(2-((1R,3R)-1-acetoxy-3-((2S,3S)—N,3-dimethyl-2-((R)-1-methylpiperidine-2-carboxamido)pentanamido)-4-methylpentyl)thiazole-4-carboxamido)-5-(3-(3-(2-(2-azidoethoxy)ethoxy)propanamido)-4-hydroxyphenyl)-2-methylpentanoic acid” registered a conjugation yield of 82% yield.

On to “(4R)-4-(2-((3S,6S,9R,11R)-6-((S)-sec-butyl)-3,9-diisopropyl-8-methyl-4,7,13-trioxo-12-oxa-2,5,8-triazatetradecan-11-yl)thiazole-4-carboxamido)-2-methyl-5-phenylpentanoic acid hydrochloride salt”, for which the step yield (late stage modification step, hydrochloride salt) stood at 103% yield.

For the substance “(4R)-4-(2-((4R,6R,9S,12S,15S,18S)-9-((S)-sec-butyl)-6,12-diisopropyl-7,13,15,18-tetramethyl-2,8,11,14,17,20,23-heptaoxo-21-propiolamido-3-oxa-7,10,13,16,19,22-hexaazapentacos-24-yn-4-yl)thiazole-4-carboxamido)-2-methyl-5-phenylpentanoic acid”, the conjugation yield is on record as 85% yield. For “(4R)-4-(2-((6S,9R,11R)-6-((S)-sec-butyl)-9-isopropyl-2,3,3,8-tetramethyl-4,7,13-trioxo-12-oxa-2,5,8-triazatetradecan-11-yl)thiazole-4-carboxamido)-5-(4-hydroxy-3-(3-(2-(2-propiolamidoethoxy)ethoxy)propanamido)phenyl)-2-methylpentanoic acid”, for the setting “coupling step”, the step yield is 24%. Turning to “(S)-2-((2R,3R)-3-((S)-1-((3R,4S,5S)-4-((S)—N,3-dimethyl-2-((S)-3-methyl-2-(methylamino)butanamido)butanamido)-3-methoxy-5-methylheptanoyl)-pyrrolidin-2-yl)-3-methoxy-2-methylpropanamido)-3-phenylpropanoic acid”, the step yield entry is reported as “˜100% yield” (late stage modification step, run 1) and 90% yield (late stage modification step, run 2). Consider “(S)-2-((2R,3R)-3-((S)-1-((8S,11S,14S,17S,20S,21R)-20-((S)-sec-butyl)-14,17-diisopropyl-21-methoxy-8,11,13,19-tetramethyl-3,6,9,12,15,18-hexaoxo-5-propiolamido-4,7,10,13,16,19-hexaazatricos-1-yn-23-oyl)pyrrolidin-2-yl)-3-methoxy-2-methylpropanamido)-3-phenylpropanoic acid”, for which the conjugation yield is recorded as 78% yield.

Turning to “(S)-methyl 2-((2R,3R)-3-((S)-1-((3R,4S,5S)-4-((S)-2-((S)-2-((S)-2-amino-N-methylpropanamido)-3-methylbutanamido)-N,3-dimethylbutanamido)-3-methoxy-5-methylheptanoyl)pyrrolidin-2-yl)-3-methoxy-2-methylpropanamido)-3-phenylpropanoate”, where the note is “late stage modification step”, the step yield came out at 96% yield. For the setting “coupling step”, “(S)-methyl 2-((2R,3R)-3-((S)-1-((6S,9S,12S,13R)-12-((S)-sec-butyl)-6,9-diisopropyl-13-methoxy-2,2,5,11-tetramethyl-4,7,10-trioxo-3-oxa-5,8,11-triazapentadecan-15-oyl)pyrrolidin-2-yl)-3-methoxy-2-methylpropanamido)-3-phenylpropanoate” gave a step yield of 39% yield.
